Read-outs that look alike come from different tables or passages of the source. For some assays here: At least one structure is not confirmed: it was looked up by name or label, or the drawing left a doubt. Some results were stated once for a whole list of compounds, not compound by compound.
What was measured:
HCV = conditions: in vitro; by suppressing mTORC 1; cited from earlier work
[1] = Drug pH stability in PBS, pH 10, 37° C.
MERS-CoV = conditions: plaque reduction assay, cited from earlier work

| Compound | HCV viral RNA replication (HCV) | time of rapid drug degradation [1] | viral reduction (MERS-CoV; 0.01 um) | viral reduction (MERS-CoV; 10 um) |
| --- | --- | --- | --- | --- |
| CO[C@H]1C[C@@H]2CC[C@@H](C)[C@@](O)(O2)C(=O)C(=O)N2CCCC[C@H]2C(=O)O[C@H]([C@H](C)C[C@@H]2CC[C@@H](O)[C@H](OC)C2)CC(=O)[C@H](C)/C=C(\C)[C@@H](O)[C@@H](OC)C(=O)[C@H](C)C[C@H](C)/C=C/C=C/C=C/1C [sirolimus, Rapamycin] | able to block viral RNA replication | ≤ 2 h | 24% | 61% |
| CO[C@H]1C[C@@H]2CC[C@@H](C)[C@@](O)(O2)C(=O)C(=O)N2CCCC[C@H]2C(=O)O[C@H]([C@H](C)C[C@@H]2CC[C@@H](OCCO)[C@H](OC)C2)CC(=O)[C@H](C)/C=C(\C)[C@@H](O)[C@@H](OC)C(=O)[C@H](C)C[C@H](C)/C=C/C=C/C=C/1C [everolimus] | – | ≤ 2 h | – | – |

Reference: patent publication US20240100025A1, “Materials and Methods for Treating Viral and Other Medical Conditions” (Biotronik AG, priority 2020, published 2024)
